Source: PubChem BioAssay AID1347426 (Functional Genomics Laboratory (NCATS/FGL), 2020)
Out of some 31,000 sequences screened, about 1,400 (4.5%) were called active.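 Rule for the calls: active = median seed-adjusted z-score above 1 or below -1; inactive = the rest.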 The list shows a part of the results.

Experiment: Novel Modifiers of Survival Motor Neuron (SMN) Protein: Gene Identification via Genome-wide siRNA Screen;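 note: luminescence tracks full-length SMN protein made from the SMN2 reporter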
Settings: HEK293T SMN2-luciferase reporter, siRNA knockdown, 72 h; actives lie on both sides
Summary of the method: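 Steps: spot 1 pmol siRNA, add Lipofectamine RNAiMax in serum-free DMEM, seed HEK293T SMN2–luciferase reporter cells; incubate 72 h at 37 °C; add ONE-Glo; normalize luminescence to control siRNA, log10, MAD. Candidates: |MAD| > 1.0.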

Sequence | median seed-adjusted z-score
CCGUGAAGUUCGACCCGUATT against TH | inactive: -0.878
CCCUCCAAAUCUGAGAUUUTT against KIF17 | inactive: -0.151
CCCUAGAUUGUCUUACAUUTT against LRRN3 | inactive: 0
GAACCAAGCUUGGAUCAGATT against ACAA2 | inactive: 0.435
CCUUAUUGGAAAGAUCCAATT against TXNDC17 | inactive: 0.245
CAAUGUCUUCUCCAACUUUTT against MYL5 | inactive: 0.097
GGACACCAAGAAUUACUUUTT against LSS | inactive: -0.302
CGACAAGUCUGACAGGGAUTT against PQBP1 | active: -1.12
CCACUGACACCAUACGUAATT against PLCB4 | inactive: -0.521
CGUGCCCAAUUAUCAGAGATT against CARD10 | inactive: -0.929
CUUGGAUACAGAUACGUUUTT against TLK1 | inactive: -0.0133
GGAUUCCACCUACCCUAUUTT against STT3A | inactive: 0
CGUUAUCUUCAUCACCUAUTT against ABCC10 | active: -1.56
CUACCGAGUUGUUAUAAGATT against ZNF300 | inactive: -0.302
CCAUGAUCCUGAUAGGCAATT against PLAT | inactive: 0.246
CGCGAUCAGUACGACUUUATT against EHHADH | inactive: 0.0626
GGUCGACAGUUUUCACAGATT against PPFIA1 | inactive: 0.312
GCAGCUACAAAAACAGCUATT against MED4 | inactive: -0.632
GGAUGAUGUGAGGCAUAAATT against GPR107 | inactive: 0
CACCGGCACUUUACAGAGATT against MAPKAPK5 | inactive: 0.489
UGCUCUGACCGGAAGAGAATT against NRGN | inactive: -0.381
CGACUACUCCGAGAUGAGATT against DLG5 | inactive: 0.467

Sequence | median seed-adjusted z-score
CAAUUGGGUGCGUAACUUUTT against GBA | inactive: -0.492
GCUUUGACCAGUGCGAUUATT against VCAN | inactive: 0.0927
GCACUUUAGAAACCGCUUUTT against HOXB13 | inactive: -0.136
GAAACUUCCUAAGUCGAAATT against FAM57A | inactive: 0.0434
GGUCUUAACUUGCACCAGATT against ZNF230 | inactive: -0.203
CCACUUACCCUCAAAGAAATT against SLC4A5 | active: 1.3
CCCGAUUAUUUUCGACCUATT against PHKB | inactive: -0.142
GAAACUACACUGUGCAGUUTT against RBP5 | inactive: -0.748
GGAAAAGGCUGUCUACAUUTT against CYSLTR1 | inactive: 0.364
GGUCGGUAUGGGUCAGAAATT against ACTA1 | inactive: -0.103
CAAAAAGGGUGGACAAGUUTT against CSGALNACT1 | inactive: -0.235
GGCUGAUCAGUGUUCUAGATT against IDI1 | inactive: -0.0118
GGCAAGAUCUCAACCGGCATT against TRPV6 | inactive: -0.511
GCCUACAGCCUGUCAGAGATT against DNAJB2 | inactive: 0
ACAAGAUCGUGAAGCAGAATT against PPP5C | inactive: 0.473
GGUUAAAGGUUAUGGUCCATT against PROSC | inactive: 0.173
GAAAUACACCAGUUGGUAUTT against FGF2 | inactive: 0.0208
GCGAUUGUCUGCUUACAGATT against AHCTF1 | inactive: -0.501
GCCUUCCACGCUUUCCUGATT against RGS16 | inactive: 0
GAAUAUUCCUUACUAAUCATT against QSOX2 | inactive: 0.498
GUCUUUACUCUUCAACUGATT against THBS4 | inactive: -0.28
GGAAACUUGUAACCGAUCATT against ACP1 | inactive: -0.277

2 entries from above, comma-delimited.
Sequence,median seed-adjusted z-score
CACCGGCACUUUACAGAGATT against MAPKAPK5,inactive: 0.489
UGCUCUGACCGGAAGAGAATT against NRGN,inactive: -0.381

(further entries)

Sequence | median seed-adjusted z-score
CAAUUGUUCCUCAUCCUUATT against ZNF555 | inactive: 0.141
GCACUAUCGCAUCGACAAATT against SYK | inactive: 0.567
GUGGAAUGCCUAGAACUGATT against GCNT2 | inactive: -0.0107
GUCCAAGAAUAGAGAGAUATT against SGCE | inactive: 0.202
GGACUGUACAACACUCUGATT against TGFB3 | inactive: -0.354
GGUUCUAACUUCGAAAAAUTT against DNAJC8 | active: -1.62
GGAGGACGGCUUCUACGAATT against KCNJ9 | inactive: -0.0832
GCUUUCUGUUCUUCGGUAATT against SLC26A8 | inactive: -0.145
GUGUUCCGCUAUAUCCUCATT against KCTD21 | inactive: 0.0236
GCAACGGCGGGAUUACAAATT against SUOX | inactive: -0.0649
GGUUCACUGGAACACCAAATT against CA2 | inactive: 0.328
GCUACAAUGGGUCCACUAATT against CYFIP2 | inactive: -0.322
CGACAAUGCGCCUUACUUUTT against PCDHGA12 | inactive: 0.561
GACUACCAGUUGAUCAUGUTT against TTBK1 | inactive: 0.00054
GGAAGGAACCAUCCAGUAATT against POLR2L | active: -1.19
GGUACAUCACGGAAAGGAATT against LCTL | inactive: -0.0821
AAAUGCAACCCAAAAAGUATT against CCT7 | inactive: -0.246
CCACAGUUACCUCAGCAAATT against RASSF3 | inactive: -0.323
CCUAUCCCUUUAUCACGUATT against CHRNB3 | inactive: -0.0155
GGCAAAAACUGUGAAUUAUTT against F10 | inactive: -0.0033
GGAAAGAGCUGGUGAUGAATT against CLEC4F | inactive: 0.347
CCGGGUUUAUGAUAUUCCATT against CYBB | inactive: 0.0487

Quoted at random: four entries already listed, in no set order.
Sequence | median seed-adjusted z-score
GCUUUCUGUUCUUCGGUAATT against SLC26A8 | inactive: -0.145
GGAAGGAACCAUCCAGUAATT against POLR2L | active: -1.19
GGUUCACUGGAACACCAAATT against CA2 | inactive: 0.328
CCGGGUUUAUGAUAUUCCATT against CYBB | inactive: 0.0487

Further results follow:

Sequence | median seed-adjusted z-score
GCCUACUCAUCUGCCAAGATT against DUPD1 | inactive: -0.406
CCAAGUAAUCCAUAACGCATT against ZNF528 | inactive: -0.0746
GGUAGUGCUUAUACCUAUATT against SLC15A1 | inactive: -0.693
GAAAUGAGAAGAUACAAUATT against WBSCR17 | inactive: 0
CUGUUGCAAUUGGACAUUUTT against AQP4 | inactive: -0.361
GCCGCUAGCUUUUCAGACATT against GPR124 | inactive: 0.00658
GGCUUAAUGUGGUGAUGUUTT against COL7A1 | active: 1.08
GAAAACGACUUCUAAGUUATT against TMTC3 | inactive: 0.266
GGAGAUGCACAACAUCUUATT against PIP4K2B | inactive: 0.17
UUGAUAAGGUUAAACCACATT against CSTA | inactive: -0.351
CCCUCGUUGAGAUCAAAGATT against KIF21B | inactive: 0.934
GCAAAUUCACAGGCAAUUUTT against DHCR7 | inactive: 0.00451
GAAUCAUCCUAAUAUAGGUTT against MARK1 | inactive: 0.341
GGGCGAUCCUGCUUCCAAATT against GRN | inactive: -0.767
GCGGCAAUCUUGGGAGUAATT against TMPRSS11B | inactive: -0.545
AACUGGUGCUGGUCAAUUATT against ERF | inactive: -0.0288
GUCCUCAAGUGUGUGGUCATT against BOK | inactive: 0
AGUCAGUGUUCGUCAUCCATT against ZNF446 | inactive: 0.0496
CUAUGGUACUUGCUGGACUTT against PAEP | inactive: -0.0632
GUGUCGAGUUAGCUACAAATT against KIFAP3 | inactive: 0.403
GCCUUGUUCCUGAGAGUGATT against CD247 | inactive: -0.522
CAACAGGCCUUAUUCCACUTT against SOD2 | inactive: -0.558

Sequence | median seed-adjusted z-score
GAGAGACCCUCGUCCUUUATT against CYP20A1 | inactive: -0.796
GGUCACCUGUAUUCGCUGUTT against ZNRD1 | inactive: -0.133
GGUAUUACUCACAAACAAATT against IL1RL1 | inactive: -0.286
GGGAUCCGAUAACCAAGAATT against POLR3F | inactive: 0
CCUGUGCAUCUAUCACAAATT against ZNRF1 | inactive: -0.808
UCAUCUCGUUGGACCGUUATT against GPR135 | inactive: 0.546
GGAAAUCUGAGCUUACUGATT against ZNF649 | inactive: 0.259
AGCACAUCCUCUUCGUCAATT against GPX5 | inactive: 0.0205
GGAUGGGAUUCGCAACUAATT against SPTLC3 | inactive: 0.279
CAGUGUCCGUGGUUGCUAATT against ACR | inactive: -0.655
CCCAAUAUGUGCGGAUUAATT against DSC3 | inactive: 0.18
CCCUCAUGCUCUCAUACAATT against CPN2 | inactive: 0.0491
CGGAAUUCUUCGUUACUCATT against ZNF813 | inactive: 0.127
CGAAAGUAUCUGGAGCUAATT against PAN2 | inactive: -0.139
ACGGCAAAGUGUUUUGUGATT against LIMD1 | inactive: 0.587
GGAGUUCUUUGAUGAGAAATT against PPP2R1A | inactive: 0.973
GAUACACUCCCUAUACUAUTT against NXF3 | inactive: 0.672
GAGUUGUCUUCAAACUUAUTT against SMYD3 | inactive: 0.1
GGGAUUAACAUUUACUGCATT against ZRANB3 | inactive: 0.0516
GGACGCAGGUUUCUGUUUATT against CHRFAM7A | inactive: 0.115

Looked up above.
Under median seed-adjusted z-score, GGGAUCCGAUAACCAAGAATT against POLR3F has inactive: 0
Under median seed-adjusted z-score, GGAGUUCUUUGAUGAGAAATT against PPP2R1A has inactive: 0.973
